From ChEMBL document CHEMBL4513145, “CO-ADD screening of Biotechnology Research Centre (C.R.B.t) (Algeria) compounds”
Several values for one entry are separate records, joined by “and”; a condition that tells them apart may be missing. Identical values can stand only once. The list shows a part of the results. Measured potencies and affinities stand elsewhere.

Tested on: Pseudomonas aeruginosa
Conditions: Concentration 32 ug.mL-1, ASSAY_TEST Inhibition of Bacterial Growth, detection method Absorption (OD600), MEDIA CAMHB, plate type 384well, NBS, CORNING #3640, time 18 hr

Row | SMILES | Inhibition | Inhibition (32 ug/mL)
1 | CC(C)(C)OC(=O)N1C(O)C2CCCC2N1S(=O)(=O)c1ccc([N+](=O)[O-])cc1 (stereo not drawn) | -23.89% | –
2 | CC1C(O)N(C(=O)OC(C)(C)C)N(S(=O)(=O)c2ccc([N+](=O)[O-])cc2)C1C (stereo not drawn) | 5.31% | –
3 | O=C(OCc1ccccc1)N1OC(O)C2CCCCC21 (stereo not drawn) | 10.75% | –
4 | CCCCCCCC1CN(S(=O)(=O)c2ccc(C)cc2)N(C(=O)OC(C)(C)C)C1=O (stereo not drawn) | 2.47% | –
5 | O=C(OCc1ccccc1)N1CC(Cc2ccccc2)C(O)O1 (stereo not drawn) | -8.1% | –
6 | CC1CN(S(=O)(=O)c2ccc([N+](=O)[O-])cc2)N(C(=O)OC(C)(C)C)C1O (stereo not drawn) | -10.15% | –
7 | CC1CN(C(=O)OCc2ccccc2)OC1O (stereo not drawn) | 27.74% | –
8 | O=C1ON(C(=O)OCc2ccccc2)CC1Cc1ccccc1 (stereo not drawn) | – | 8.06% and 19.06%
9 | Cc1ccc(S(=O)(=O)N2CC(Cc3ccccc3)C(=O)N2S(=O)(=O)c2ccc(C)cc2)cc1 (stereo not drawn) | – | 11.67% and 7.14%
10 | Cc1ccc(S(=O)(=O)N2CC(C)C(=O)N2S(=O)(=O)c2ccc(C)cc2)cc1 (stereo not drawn) | – | 6.74% and 18.06%
11 | CCCCCCCC1CN(S(=O)(=O)c2ccc(C)cc2)N(S(=O)(=O)c2ccc(C)cc2)C1O (stereo not drawn) | 13.24% | –
12 | CCCCCCCC1CN(S(=O)(=O)c2ccc(C)cc2)N(C(=O)OC(C)(C)C)C1O (stereo not drawn) | 11.9% | –
13 | CC1CN(S(=O)(=O)c2ccc([N+](=O)[O-])cc2)N(C(=O)OC(C)(C)C)C1=O (stereo not drawn) | – | 17.07% and 8.92% and 22.9%
